At least one compound was matched to its structure with a doubt left.
Columns and labels:
[1] = system: Human angiosarcoma cells (ISO-HAS-B); experiment: Test Example 2: cell proliferation suppression (MTT cell count, T/C×100; bright-field images); type: cell-based; details: sirolimus 1, 10 or 100 nM, 48 hours (FIG. 2a, FIG. 3)
[2] = system: vascular endothelial growth factor (VEGF); experiment: Test Example 3: suppression of production of VEGF (ELISA of culture supernatant); type: cell-based, human; details: 20 nM sirolimus, 24, 48, 72 hours; normal fibroblasts, infant fibroblasts, HaCaT, angiofibroma cells, neurofibroma cells (FIG. 5)
[3] = system: Normal human vascular endothelial cells (HMVEC-d); experiment: Test Example 2: cell proliferation suppression (MTT cell count, T/C×100; bright-field images); type: cell-based; details: sirolimus 1, 10 or 100 nM, 96 hours (FIG. 2b, FIG. 4)

In the case of `CO[C@H]1C[C@@H]2CC[C@@H](C)[C@@](O)(O2)C(=O)C(=O)N2CCCC[C@H]2C(=O)O[C@H]([C@H](C)C[C@@H]2CC[C@@H](O)[C@H](OC)C2)CC(=O)[C@H](C)/C=C(\C)[C@@H](O)[C@@H](OC)C(=O)[C@H](C)C[C@H](C)/C=C/C=C/C=C/1C` [Sirolimus, sirolimus], the “proliferation-suppressing effect on tumor-derived vascular endothelial cells” value [1] was “suppressed in a sirolimus concentration-dependent manner”, the “proliferation-suppressing effect on tumor-derived vascular endothelial cells” value ([1]; listed as sirolimus) was “high” and the “production of VEGF” value [2] was “suppressed”. The “proliferation of normal human vascular endothelial cells” value [3] was “slightly suppressed”.

Source: patent US20220142990A1, “EXTERNAL PREPARATION FOR TREATING A VASCULAR ANOMALY” (OSAKA UNIVERSITY, priority 2019, published 2022)
